{"source": "PubChem BioAssay AID1259327 | Drosophila RNAi Screening Center, 2017", "purpose": "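Baseline ATP after transmembrane-protein gene knock-down with water vehicle only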", "cells": "Drosophila S2R+ cells", "reagent": "long dsRNA against Drosophila genes", "time to read-out": "5 days (water added on day 4, read one day later)", "conditions": "water added as vehicle, no metal, one day before read-out", "measurement": "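Luciferase ATP signal per well, normalised to plate mean, duplicate average converted to z-score across plates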", "reading the numbers": "ATP z-score: higher = more total ATP than typical wells; ATP luminescence: higher = more total ATP", "active means": "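a hit is any knock-down whose absolute ATP z-score is greater than 1.5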", "calls": "active = hit: ATP up or down; inactive = no clear ATP change", "note": "Shown is an unselected part of about 3,100 deposited reagents. 378 of all reagents (12%) count as active. 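Hits include both directions; z-score sign shows ATP rise or fall; raw luminescence values are not plate-normalised.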 A plus sign joins genes that one reagent is predicted to hit. Reagent sequences are not shown. Not stated in the record: the amount of reagent."}
{"Gene": "PMCA (GeneID 43787)", "amplicon": "DRSC17113", "ATP z-score, duplicate mean": -0.0671, "ATP luminescence, replicate 1 (RLU)": 9.34e5, "ATP luminescence, replicate 2 (RLU)": 8.42e5, "activity call": "inactive"}
{"Gene": "PMCA (GeneID 43787)", "amplicon": "DRSC17114", "ATP z-score, duplicate mean": 2.81, "ATP luminescence, replicate 1 (RLU)": 1.28e6, "ATP luminescence, replicate 2 (RLU)": 1.25e6, "activity call": "active"}
{"Gene": "PMCA (GeneID 43787)", "amplicon": "DRSC17154", "ATP z-score, duplicate mean": 1.78, "ATP luminescence, replicate 1 (RLU)": 8.98e5, "ATP luminescence, replicate 2 (RLU)": 8.80e5, "activity call": "active"}
{"Gene": "l(2)03659 (GeneID 47905)", "amplicon": "DRSC07269", "ATP z-score, duplicate mean": 0.538, "ATP luminescence, replicate 1 (RLU)": 6.03e5, "ATP luminescence, replicate 2 (RLU)": 7.33e5, "activity call": "inactive"}
{"Gene": "l(2)03659 (GeneID 47905)", "amplicon": "DRSC07638", "ATP z-score, duplicate mean": 0.0904, "ATP luminescence, replicate 1 (RLU)": 6.82e5, "ATP luminescence, replicate 2 (RLU)": 8.27e5, "activity call": "inactive"}
{"Gene": "CR32011 + CR32009 + PlexB + 1 more", "amplicon": "DRSC21664", "ATP z-score, duplicate mean": -1.11, "ATP luminescence, replicate 1 (RLU)": 5.22e5, "ATP luminescence, replicate 2 (RLU)": 4.48e5, "activity call": "inactive"}
{"Gene": "CR32011 + CR32009 + PlexB + 1 more", "amplicon": "DRSC26099", "ATP z-score, duplicate mean": 1.05, "ATP luminescence, replicate 1 (RLU)": 1.13e6, "ATP luminescence, replicate 2 (RLU)": 8.29e5, "activity call": "inactive"}
{"Gene": "Lar (GeneID 35259)", "amplicon": "DRSC01707", "ATP z-score, duplicate mean": -0.348, "ATP luminescence, replicate 1 (RLU)": 6.99e5, "ATP luminescence, replicate 2 (RLU)": 7.11e5, "activity call": "inactive"}
{"Gene": "Lar (GeneID 35259)", "amplicon": "DRSC03361", "ATP z-score, duplicate mean": 0.00172, "ATP luminescence, replicate 1 (RLU)": 5.68e5, "ATP luminescence, replicate 2 (RLU)": 3.84e5, "activity call": "inactive"}
{"Gene": "Lar (GeneID 35259)", "amplicon": "DRSC36994", "ATP z-score, duplicate mean": 1.29, "ATP luminescence, replicate 1 (RLU)": 7.04e5, "ATP luminescence, replicate 2 (RLU)": 6.74e5, "activity call": "inactive"}
{"Gene": "Eaat2 (GeneID 33247)", "amplicon": "DRSC00032", "ATP z-score, duplicate mean": -0.689, "ATP luminescence, replicate 1 (RLU)": 6.14e5, "ATP luminescence, replicate 2 (RLU)": 7.25e5, "activity call": "inactive"}
{"Gene": "Eaat2 (GeneID 33247)", "amplicon": "DRSC00749", "ATP z-score, duplicate mean": -0.384, "ATP luminescence, replicate 1 (RLU)": 4.18e5, "ATP luminescence, replicate 2 (RLU)": 4.89e5, "activity call": "inactive"}
{"Gene": "Eaat2 (GeneID 33247)", "amplicon": "DRSC26070", "ATP z-score, duplicate mean": 0.118, "ATP luminescence, replicate 1 (RLU)": 8.52e5, "ATP luminescence, replicate 2 (RLU)": 8.77e5, "activity call": "inactive"}
{"Gene": "Tsp26A (GeneID 33838)", "amplicon": "DRSC03135", "ATP z-score, duplicate mean": 0.184, "ATP luminescence, replicate 1 (RLU)": 7.59e5, "ATP luminescence, replicate 2 (RLU)": 7.33e5, "activity call": "inactive"}
{"Gene": "Mics1 (GeneID 40898)", "amplicon": "DRSC12537", "ATP z-score, duplicate mean": -0.171, "ATP luminescence, replicate 1 (RLU)": 2.67e5, "ATP luminescence, replicate 2 (RLU)": 8.07e5, "activity call": "inactive"}
{"Gene": "Mics1 (GeneID 40898)", "amplicon": "DRSC39452", "ATP z-score, duplicate mean": 0.911, "ATP luminescence, replicate 1 (RLU)": 5.38e5, "ATP luminescence, replicate 2 (RLU)": 4.90e5, "activity call": "inactive"}
{"Gene": "CG33012 (GeneID 36342)", "amplicon": "DRSC06287", "ATP z-score, duplicate mean": -1.69, "ATP luminescence, replicate 1 (RLU)": 4.48e5, "ATP luminescence, replicate 2 (RLU)": 4.86e5, "activity call": "active"}
{"Gene": "CG33012 (GeneID 36342)", "amplicon": "DRSC06288", "ATP z-score, duplicate mean": 0.312, "ATP luminescence, replicate 1 (RLU)": 7.18e5, "ATP luminescence, replicate 2 (RLU)": 8.38e5, "activity call": "inactive"}
{"Gene": "Ctl2 (GeneID 43440)", "amplicon": "DRSC29712", "ATP z-score, duplicate mean": -0.401, "ATP luminescence, replicate 1 (RLU)": 8.82e5, "ATP luminescence, replicate 2 (RLU)": 6.77e5, "activity call": "inactive"}
{"Gene": "ATP8A (GeneID 36488)", "amplicon": "DRSC06643", "ATP z-score, duplicate mean": 0.139, "ATP luminescence, replicate 1 (RLU)": 7.21e5, "ATP luminescence, replicate 2 (RLU)": 7.72e5, "activity call": "inactive"}
{"Gene": "ATP8A (GeneID 36488)", "amplicon": "DRSC06644", "ATP z-score, duplicate mean": 0.517, "ATP luminescence, replicate 1 (RLU)": 7.42e5, "ATP luminescence, replicate 2 (RLU)": 5.90e5, "activity call": "inactive"}
{"Gene": "Psn (GeneID 40260)", "amplicon": "DRSC11743", "ATP z-score, duplicate mean": -0.646, "ATP luminescence, replicate 1 (RLU)": 8.31e5, "ATP luminescence, replicate 2 (RLU)": 7.92e5, "activity call": "inactive"}
{"Gene": "CG8219 (GeneID 38722)", "amplicon": "DRSC10971", "ATP z-score, duplicate mean": -0.373, "ATP luminescence, replicate 1 (RLU)": 8.68e5, "ATP luminescence, replicate 2 (RLU)": 8.26e5, "activity call": "inactive"}
{"Gene": "CG8219 (GeneID 38722)", "amplicon": "DRSC24577", "ATP z-score, duplicate mean": 0.134, "ATP luminescence, replicate 1 (RLU)": 8.67e5, "ATP luminescence, replicate 2 (RLU)": 8.67e5, "activity call": "inactive"}

Active calls, among the entries above:
{"Gene": "PMCA (GeneID 43787)", "amplicon": "DRSC17114", "ATP z-score, duplicate mean": 2.81, "ATP luminescence, replicate 1 (RLU)": 1.28e6, "ATP luminescence, replicate 2 (RLU)": 1.25e6, "activity call": "active"}
{"Gene": "PMCA (GeneID 43787)", "amplicon": "DRSC17154", "ATP z-score, duplicate mean": 1.78, "ATP luminescence, replicate 1 (RLU)": 8.98e5, "ATP luminescence, replicate 2 (RLU)": 8.80e5, "activity call": "active"}
{"Gene": "CG33012 (GeneID 36342)", "amplicon": "DRSC06287", "ATP z-score, duplicate mean": -1.69, "ATP luminescence, replicate 1 (RLU)": 4.48e5, "ATP luminescence, replicate 2 (RLU)": 4.86e5, "activity call": "active"}
